Test results taken from patent publication US20180320217A1, “METHODS FOR SAMPLING AND MEASURING ORAL LAVAGE PROTEINS” (The Procter & Gamble Company, priority 2017, published 2018).

B1: Ephrin-B2 (protein, UniProt P52799 28-333, looked up)
Ephrin-B2: IVLEPIYWNSSNSKFLPGQGLVLYPQIGDKLDIICPKVDSKTVGQYEYYKVYMVDKDQADRCTIKKENTPLLNCAKPDQDIKFTIKFQEFSPNLWGLEFQKNKDYYIISTSNGSLEGLDNQEGGVCQTRAMKILMKVGQDASSAGSTRNKDPTRRPELEAGTNGRSSTTSPFVKPNPGSSTDGNSAGHSGNNILGSEVALFAGIASGCIIFIVIIITLVVLLLKYRRRHRKHSPQHTTTLSLSTLATPKRSGNNNGSEPSDIIIPLRTADSVFCPHYEKVSGDYGHPVYIVQEMPPQSPANIYYKV
B2: Formimidoyltransferase-cyclodeaminase (protein, UniProt O95954 1-541, looked up)
Formimidoyltransferase-cyclode …: MSQLVECVPNFSEGKNQEVIDAISGAITQTPGCVLLDVDAGPSTNRTVYTFVGPPECVVEGALNAARVASRLIDMSRHQGEHPRMGALDVCPFIPVRGVSVDECVLCAQAFGQRLAEELDVPVYLYGEAARMDSRRTLPAIRAGEYEALPKKLQQADWAPDFGPSSFVPSWGATATGARKFLIAFNINLLGTKEQAHRIALNLREQGRGKDQPGRLKKVQGIGWYLDEKNLAQVSTNLLDFEVTALHTVYEETCREAQELSLPVVGSQLVGLVPLKALLDAAAFYCEKENLFILEEEQRIRLVVSRLGLDSLCPFSPKERIIEYLVPERGPERGLGSKSLRAFVGEVGARSAAPGGGSVAAAAAAMGAALGSMVGLMTYGRRQFQSLDTTMRRLIPPFREASAKLTTLVDADAEAFTAYLEAMRLPKNTPEEKDRRTAALQEGLRRAVSVPLTLAETVASLWPALQELARCGNLACRSDLQVAAKALEMGVFGAYFNVLINLRDITDEAFKDQIHHRVSSLLQEAKTQAALVLDCLETRQE
B3: Fructose-bisphosphate aldolase A (protein, UniProt P04075 2-364, looked up)
Fructose-bisphosphate …: PYQYPALTPEQKKELSDIAHRIVAPGKGILAADESTGSIAKRLQSIGTENTEENRRFYRQLLLTADDRVNPCIGGVILFHETLYQKADDGRPFPQVIKSKGGVVGIKVDKGVVPLAGTNGETTTQGLDGLSERCAQYKKDGADFAKWRCVLKIGEHTPSALAIMENANVLARYASICQQNGIVPIVEPEILPDGDHDLKRCQYVTEKVLAAVYKALSDHHIYLEGTLLKPNMVTPGHACTQKFSHEEIAMATVTALRRTVPPAVTGITFLSGGQSEEEASINLNAINKCPLLKPWALTFSYGRALQASALKAWGGKKENLKAAQEEYVKRALANSLACQGKYTPSGQAGAAASESLFVSNHAY
B4: Gamma-enolase (protein, UniProt P09104 2-434, looked up)
Gamma-enolase: SIEKIWAREILDSRGNPTVEVDLYTAKGLFRAAVPSGASTGIYEALELRDGDKQRYLGKGVLKAVDHINSTIAPALISSGLSVVEQEKLDNLMLELDGTENKSKFGANAILGVSLAVCKAGAAERELPLYRHIAQLAGNSDLILPVPAFNVINGGSHAGNKLAMQEFMILPVGAESFRDAMRLGAEVYHTLKGVIKDKYGKDATNVGDEGGFAPNILENSEALELVKEAIDKAGYTEKIVIGMDVAASEFYRDGKYDLDFKSPTDPSRYITGDQLGALYQDFVRDYPVVSIEDPFDQDDWAAWSKFTANVGIQIVGDDLTVTNPKRIERAVEEKACNCLLLKVNQIGSVTEAIQACKLAQENGWGVMVSHRSGETEDTFIADLVVGLCTGQIKTGAPCRSERLAKYNQLMRIEEELGDEARFAGHNFRNPSVL
B5: Granulocyte colony-stimulating factor (protein, UniProt P09919 31-207, looked up)
Granulocyte …: TPLGPASSLPQSFLLKCLEQVRKIQGDGAALQEKLVSECATYKLCHPEELVLLGHSLGIPWAPLSSCPSQALQLAGCLSQLHSGLFLYQGLLQALEGISPELGPTLDTLQLDVADFATTIWQQMEELGMAPALQPTQGAMPAFASAFQRRAGGVLVASHLQSFLEVSYRVLRHLAQP
B6: Granulocyte colony-stimulating factor receptor (protein, UniProt Q99062 25-836, looked up)
Granulocyte …: ECGHISVSAPIVHLGDPITASCIIKQNCSHLDPEPQILWRLGAELQPGGRQQRLSDGTQESIITLPHLNHTQAFLSCCLNWGNSLQILDQVELRAGYPPAIPHNLSCLMNLTTSSLICQWEPGPETHLPTSFTLKSFKSRGNCQTQGDSILDCVPKDGQSHCCIPRKHLLLYQNMGIWVQAENALGTSMSPQLCLDPMDVVKLEPPMLRTMDPSPEAAPPQAGCLQLCWEPWQPGLHINQKCELRHKPQRGEASWALVGPLPLEALQYELCGLLPATAYTLQIRCIRWPLPGHWSDWSPSLELRTTERAPTVRLDTWWRQRQLDPRTVQLFWKPVPLEEDSGRIQGYVVSWRPSGQAGAILPLCNTTELSCTFHLPSEAQEVALVAYNSAGTSRPTPVVFSESRGPALTRLHAMARDPHSLWVGWEPPNPWPQGYVIEWGLGPPSASNSNKTWRMEQNGRATGFLLKENIRPFQLYEIIVTPLYQDTMGPSQHVYAYSQEMAPSHAPELHLKHIGKTWAQLEWVPEPPELGKSPLTHYTIFWTNAQNQSFSAILNASSRGFVLHGLEPASLYHIHLMAASQAGATNSTVLTLMTLTPEGSELHIILGLFGLLLLLTCLCGTAWLCCSPNRKNPLWPSVPDPAHSSLGSWVPTIMEEDAFQLPGLGTPPITKLTVLEEDEKKPVPWESHNSSETCGLPTLVQTYVLQGDPRAVSTQPQSQSGTSDQVLYGQLLGSPTSPGPGHYLRCDSTQPLLAGLTPSPKSYENLWFQASPLGTLVTPAPSQEDDCVFGPLLNFPLLQGIRVHGMEALGSF
B7: Growth arrest-specific protein 1 (protein, UniProt P54826 40-318, looked up)
Growth arrest-specific …: LAHGRRLICWQALLQCQGEPECSYAYNQYAEACAPVLAQHGGGDAPGAAAAAFPASAASFSSRWRCPSHCISALIQLNHTRRGPALEDCDCAQDENCKSTKRAIEPCLPRTSGGGAGGPGAGGVMGCTEARRRCDRDSRCNLALSRYLTYCGKVFNGLRCTDECRTVIEDMLAMPKAALLNDCVCDGLERPICESVKENMARLCFGAELGNGPGSSGSDGGLDDYYDEDYDDEQRTGGAGGEQPLDDDDGVPHPPRPGSGAAASGGRGDLPYGPGRRSS

System: proteins in oral lavage
Assay: Abundance of proteins in human oral lavage (SomaLogic), TABLE 1
Assay type: in vivo
Details: for Means (Original Scale) High bleeder BL / Means (Original Scale) High bleeder W4 / Means (Original Scale) Low bleeder BL: abundance in oral lavage; for Means (Original Scale) High bleeder BL: high bleeders (gingivitis); for Means (Original Scale) High bleeder BL / Means (Original Scale) Low bleeder BL: baseline; for Means (Original Scale) High bleeder W4 / Fold Change High bleeder W4 vs High bleeder BL: high bleeders; for Means (Original Scale) High bleeder W4: week 4 of investigative products; for Means (Original Scale) Low bleeder BL: low bleeders (healthy); for Fold Change High bleeder BL vs Low bleeder BL / Fold Change High bleeder W4 vs High bleeder BL: oral lavage; for Fold Change High bleeder BL vs Low bleeder BL: high bleeders vs low bleeders at baseline; for Fold Change High bleeder W4 vs High bleeder BL: week 4 of investigative products vs baseline

| Molecule | Means (Original Scale) High bleeder BL | Means (Original Scale) High bleeder W4 | Means (Original Scale) Low bleeder BL | Fold Change High bleeder BL vs Low bleeder BL | Fold Change High bleeder W4 vs High bleeder BL |
| --- | --- | --- | --- | --- | --- |
| B1 | 2152 | 1295 | 1236 | 1.91 | 0.59 |
| B2 | 202 | 110 | 89 | 2.01 | 0.59 |
| B3 | 255824 | 179719 | 33774 | 18.59 | 0.68 |
| B4 | 420 | 244 | 200 | 2.36 | 0.62 |
| B5 | 504 | 268 | 121 | 3.52 | 0.61 |
| B6 | 327 | 219 | 166 | 1.90 | 0.70 |
| B7 | 2909 | 1272 | 433 | 5.48 | 0.49 |
